Construct, isoform or probe ends are uncertain for at least one entry. For part of these data: A negative result means that nothing was seen under these conditions. For part of these data: At least one verdict was read from the data and is not stated in words by the source. For part of these data: Weaker means in comparison with the reference protein, sequence or condition of that experiment.
Experiments:
[1] = test system: PgMYB15 (Picea glauca); experiment: EMSA; settings: 20 mM Tris pH 8.0, 10 mM NaCl, 2 mM EDTA, 2 mM DTT, 10% glycerol, 100 ng poly(dI-dC), 375 ng protein, 0.2 ng probe in 20 ul, room temperature 30 min, recombinant protein, label: 32P end label (unlabelled as competitor)
[2] = test system: PgMYB8 (Picea glauca); experiment: EMSA; settings: 20 mM Tris pH 8.0, 10 mM NaCl, 2 mM EDTA, 2 mM DTT, 10% glycerol, 100 ng poly(dI-dC), 375 ng protein, 0.2 ng probe in 20 ul, room temperature 30 min, recombinant protein, label: 32P end label (unlabelled as competitor)
[3] = test system: PgMYB15 (Picea glauca); experiment: competition with a labelled probe; settings: 20 mM Tris pH 8.0, 10 mM NaCl, 2 mM EDTA, 2 mM DTT, 10% glycerol, 100 ng poly(dI-dC), 375 ng protein, 0.2 ng probe in 20 ul, room temperature 30 min, recombinant protein, label: unlabelled competitor
[4] = test system: PgMYB8 (Picea glauca); experiment: competition with a labelled probe; settings: 20 mM Tris pH 8.0, 10 mM NaCl, 2 mM EDTA, 2 mM DTT, 10% glycerol, 100 ng poly(dI-dC), 375 ng protein, 0.2 ng probe in 20 ul, room temperature 30 min, recombinant protein, label: unlabelled competitor

“AACTCGCCGTCTACCTACCCACTCCCGGCT (double strand) [Pg4CL AC-I]”: binds ([1]; much weaker than PgMYB8 in protein-protein competition for the probe); binds ([2]; outcompetes PgMYB15 at ratio 0.7, not displaced by 60-fold PgMYB15).
“AACTCGCCGTCTCATGCTACACTCCCGGCT (double strand) [Pg4CL mAC-I]”: no binding ([3]; vs labelled Pg4CL AC-I); no binding ([4]; vs labelled Pg4CL AC-I).
“GAGTCGGTCCTCACCAACTTCTTCCACTTT (double strand) [PgDHS2 AC-II]”: binds more weakly [1]; binds [2].
“GAGTCGGTCCTCCATCTAGTCTTCCACTTT (double strand) [PgDHS2 mAC-II]”: no binding ([3]; vs labelled PgDHS2 AC-II); no binding ([4]; vs labelled PgDHS2 AC-II).
“GGTCCCGTGGCCACCAACTCTGGTGATGTG (double strand) [Pg4CL AC-II]”: no binding [1]; binds [2].
“GGTCCCGTGGCCCATCTAGCTGGTGATGTG (double strand) [Pg4CL mAC-II]”: no binding ([4]; vs labelled Pg4CL AC-II).
“GTTGTTGGAGCCACCTACCTCCAATAGATT (double strand) [PgDHS2 AC-I]”: binds [1]; binds [2].
“GTTGTTGGAGCCCATGCTATCCAATAGATT (double strand) [PgDHS2 mAC-I]”: no binding ([3]; vs labelled PgDHS2 AC-I); no binding ([4]; vs labelled PgDHS2 AC-I).

From PMC3904711
